Laboratory results: paper PMC6857050
No constants are given. Whether binding was seen depends on the method and setting. For part of these data: Binding seen in cells or lysates may run through a third protein. Some results given as binding are weak or reduced against the parent protein; the word gives no strength.

Protein sequences, listed by entry. Tags and fused reporters are not part of them.
UniProt P60953: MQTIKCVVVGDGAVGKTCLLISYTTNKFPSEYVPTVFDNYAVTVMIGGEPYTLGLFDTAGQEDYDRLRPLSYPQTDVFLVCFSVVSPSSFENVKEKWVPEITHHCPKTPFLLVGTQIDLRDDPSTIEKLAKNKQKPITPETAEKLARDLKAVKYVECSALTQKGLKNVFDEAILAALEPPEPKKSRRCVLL

Assays:
[1] = molecular target: His-GINS4 fusion protein (UniProt Q9BRT9); experiment: pull-down; His-GINS4 rotated with GST, GST-Rac1 or GST-CDC42 at 4 °C for 4 h, then Ni-NTA beads for 4 h at 4 °C; three washes; western blot with anti-GST antibody; both purified
[2] = molecular target: Flag-GINS4 (in 293T cells) (UniProt Q9BRT9); experiment: co-IP; 293T cells transfected with Flag-GINS4 or Flag-vector for 24 h; lysis buffer 20 mM Tris-HCl pH 8, 137 mM NaCl, 0.5% Triton X-100, 2 mM EDTA; 500 μg protein on anti-FLAG-M2 agarose; western blot
[3] = molecular target: Flag-GINS4 (in MGC-803 cells) (UniProt Q9BRT9); experiment: co-IP; MGC-803 cells; Flag-GINS4 immunoprecipitated, endogenous Rac1 and CDC42 detected (Figure S3A)

GST-CDC42 (from UniProt P60953 1-191)
binding [1]: binds

endogenous CDC42 (293T cells) (from UniProt P60953 1-191)
binding [2]: binds

endogenous CDC42 (MGC-803 cells) (from UniProt P60953 1-191)
binding [3]: binds
